These are yes or no findings as the source states them, for the method shown. Binding seen in cells or lysates may run through a third protein. Some binding calls cover weakened binding; strength is not graded here. Sequences can lack the tags named with a protein.

Sequences of proteins named here, by UniProt entry; tags and fusion partners are left off.
UniProt P32598: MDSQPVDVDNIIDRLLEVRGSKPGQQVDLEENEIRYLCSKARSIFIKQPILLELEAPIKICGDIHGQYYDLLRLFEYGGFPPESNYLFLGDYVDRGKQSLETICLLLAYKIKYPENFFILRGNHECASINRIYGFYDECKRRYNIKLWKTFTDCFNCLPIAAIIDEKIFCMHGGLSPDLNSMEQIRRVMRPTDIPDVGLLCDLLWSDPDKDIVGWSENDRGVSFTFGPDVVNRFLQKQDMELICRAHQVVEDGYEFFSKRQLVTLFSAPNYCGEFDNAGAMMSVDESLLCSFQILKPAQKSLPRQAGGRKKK

This note sets out measurements from article PMC12520357 (2025).

Test [1] addresses T1, Reg1-FLAG (wild type) (S. cerevisiae) (UniProt Q00816).
T1 sequence: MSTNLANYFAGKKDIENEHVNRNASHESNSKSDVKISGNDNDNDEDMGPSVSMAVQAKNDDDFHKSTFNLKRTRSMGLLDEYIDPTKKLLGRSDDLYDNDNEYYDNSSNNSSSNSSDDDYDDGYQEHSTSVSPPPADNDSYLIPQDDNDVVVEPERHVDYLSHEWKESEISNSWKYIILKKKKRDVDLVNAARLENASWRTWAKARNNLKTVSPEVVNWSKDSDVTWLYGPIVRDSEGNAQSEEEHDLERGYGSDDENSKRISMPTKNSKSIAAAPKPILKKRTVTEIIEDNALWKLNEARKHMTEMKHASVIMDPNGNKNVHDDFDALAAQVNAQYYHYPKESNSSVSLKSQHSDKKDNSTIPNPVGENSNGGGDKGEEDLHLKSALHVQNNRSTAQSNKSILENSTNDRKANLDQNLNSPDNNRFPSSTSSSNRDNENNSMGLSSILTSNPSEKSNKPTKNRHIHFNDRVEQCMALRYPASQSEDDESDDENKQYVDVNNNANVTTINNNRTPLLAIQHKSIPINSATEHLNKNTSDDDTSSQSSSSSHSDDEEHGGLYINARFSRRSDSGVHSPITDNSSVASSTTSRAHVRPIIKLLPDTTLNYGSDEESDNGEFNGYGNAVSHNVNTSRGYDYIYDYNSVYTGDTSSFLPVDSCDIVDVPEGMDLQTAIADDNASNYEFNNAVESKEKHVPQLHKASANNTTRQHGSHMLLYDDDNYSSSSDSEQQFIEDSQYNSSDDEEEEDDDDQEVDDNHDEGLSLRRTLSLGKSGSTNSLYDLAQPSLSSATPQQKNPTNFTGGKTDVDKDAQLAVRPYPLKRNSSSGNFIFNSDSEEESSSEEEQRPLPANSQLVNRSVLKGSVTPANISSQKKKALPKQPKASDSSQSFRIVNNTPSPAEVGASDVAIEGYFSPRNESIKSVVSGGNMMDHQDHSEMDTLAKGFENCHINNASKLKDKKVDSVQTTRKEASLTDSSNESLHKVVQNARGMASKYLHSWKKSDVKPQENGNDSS
Kind of test: co-IP; Reg1-FLAG precipitated on anti-FLAG M2 agarose from native yeast lysates (50 mM HEPES pH 7.5, 150 mM NaCl, 0.5% Triton X-100, 1 mM DTT, 10% glycerol), 1 h at 4°C; blots with anti-FLAG, anti-GFP (Glc7, Snf1) and anti-14-3-3; steady state.

For test [2], the target named is T2, Reg1-W165G-FLAG (S. cerevisiae) (UniProt Q00816).
T2 sequence: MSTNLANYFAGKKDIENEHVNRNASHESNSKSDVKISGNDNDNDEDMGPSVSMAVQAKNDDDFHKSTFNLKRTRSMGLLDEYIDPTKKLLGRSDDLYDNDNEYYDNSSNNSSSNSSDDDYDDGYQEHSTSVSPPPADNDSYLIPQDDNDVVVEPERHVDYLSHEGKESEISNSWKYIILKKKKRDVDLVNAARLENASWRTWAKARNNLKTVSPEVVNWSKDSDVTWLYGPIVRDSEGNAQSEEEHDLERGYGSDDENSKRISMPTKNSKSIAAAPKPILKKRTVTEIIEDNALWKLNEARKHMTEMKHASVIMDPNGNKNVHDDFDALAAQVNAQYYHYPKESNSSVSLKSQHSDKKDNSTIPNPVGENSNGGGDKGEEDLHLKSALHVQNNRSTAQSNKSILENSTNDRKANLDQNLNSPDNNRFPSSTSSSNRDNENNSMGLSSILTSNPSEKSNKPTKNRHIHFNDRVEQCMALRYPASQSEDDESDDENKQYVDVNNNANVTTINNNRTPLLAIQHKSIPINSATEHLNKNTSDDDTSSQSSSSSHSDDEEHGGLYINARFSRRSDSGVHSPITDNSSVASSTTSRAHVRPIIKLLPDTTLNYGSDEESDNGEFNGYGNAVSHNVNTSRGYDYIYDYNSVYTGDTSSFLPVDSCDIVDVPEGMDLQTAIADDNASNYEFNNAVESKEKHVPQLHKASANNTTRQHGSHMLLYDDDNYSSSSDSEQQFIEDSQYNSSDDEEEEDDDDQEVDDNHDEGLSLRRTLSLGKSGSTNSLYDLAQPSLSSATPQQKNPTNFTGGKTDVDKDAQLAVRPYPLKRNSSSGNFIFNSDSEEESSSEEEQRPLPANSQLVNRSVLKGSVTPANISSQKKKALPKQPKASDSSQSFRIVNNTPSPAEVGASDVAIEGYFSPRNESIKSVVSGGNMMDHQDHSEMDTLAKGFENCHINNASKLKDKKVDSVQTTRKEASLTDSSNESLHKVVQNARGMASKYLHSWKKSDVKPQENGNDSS
Described as above.

As for Glc7-GFP (from UniProt P32598 1-312), the binding result in test [1] and in test [2] was “binds” in each case.

B1: Snf1-GFP (protein, UniProt P06782 1-633)
chain: MSSNNNTNTAPANANSSHHHHHHHHHHHHHGHGGSNSTLNNPKSSLADGAHIGNYQIVKTLGEGSFGKVKLAYHTTTGQKVALKIINKKVLAKSDMQGRIEREISYLRLLRHPHIIKLYDVIKSKDEIIMVIEYAGNELFDYIVQRDKMSEQEARRFFQQIISAVEYCHRHKIVHRDLKPENLLLDEHLNVKIADFGLSNIMTDGNFLKTSCGSPNYAAPEVISGKLYAGPEVDVWSCGVILYVMLCRRLPFDDESIPVLFKNISNGVYTLPKFLSPGAAGLIKRMLIVNPLNRISIHEIMQDDWFKVDLPEYLLPPDLKPHPEEENENNDSKKDGSSPDNDEIDDNLVNILSSTMGYEKDEIYESLESSEDTPAFNEIRDAYMLIKENKSLIKDMKANKSVSDELDTFLSQSPPTFQQQSKSHQKSQVDHETAKQHARRMASAITQQRTYHQSPFMDQYKEEDSTVSILPTSLPQIHRANMLAQGSPAASKISPLVTKKSKTRWHFGIRSRSYPLDVMGEIYIALKNLGAEWAKPSEEDLWTIKLRWKYDIGNKTNTNEKIPDLMKMVIQLFQIETNNYLVDFKFDGWESSYGDDTTVSNISEDEMSTFSAYPFLHLTTKLIMELAVNSQSN
In the case of B1, the binding entry in test [1] and in test [2] was “binds” each time.
